± gives the standard deviation of the averaged measurements. This is one part of the list.
Compound: Nc1nc2c(ncn2[C@@H]2O[C@H](COP(=O)(O)OP(=O)(O)OP(=O)(O)O)[C@@H](O)[C@H]2O)c(=O)[nH]1 [guanosine triphosphate]
Assay: NP40-soluble protein abundance relative to vehicle (solubility fold change) (ratio); higher = more soluble protein in presence of GTP
Method in brief: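 Jurkat crude lysate prepared with a Dounce homogeniser was treated at eight concentrations spanning 0.1 to 10 mM, 10 min at room temperature then 3 min at 37 °C. Solubilisation with 0.8% NP40 and benzonase and ultracentrifugation preceded TMT labelling of the supernatant for LC-MS/MS. Fold change against the detergent-processed vehicle was determined per replicate from vsn-normalised intensities, across three independent experiments.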

Chains of the proteins cited; added tags and fusions are not shown. Lines headed by an entry give the natural chain unless they say otherwise; changes in a name come on top.
UniProt Q96QG7: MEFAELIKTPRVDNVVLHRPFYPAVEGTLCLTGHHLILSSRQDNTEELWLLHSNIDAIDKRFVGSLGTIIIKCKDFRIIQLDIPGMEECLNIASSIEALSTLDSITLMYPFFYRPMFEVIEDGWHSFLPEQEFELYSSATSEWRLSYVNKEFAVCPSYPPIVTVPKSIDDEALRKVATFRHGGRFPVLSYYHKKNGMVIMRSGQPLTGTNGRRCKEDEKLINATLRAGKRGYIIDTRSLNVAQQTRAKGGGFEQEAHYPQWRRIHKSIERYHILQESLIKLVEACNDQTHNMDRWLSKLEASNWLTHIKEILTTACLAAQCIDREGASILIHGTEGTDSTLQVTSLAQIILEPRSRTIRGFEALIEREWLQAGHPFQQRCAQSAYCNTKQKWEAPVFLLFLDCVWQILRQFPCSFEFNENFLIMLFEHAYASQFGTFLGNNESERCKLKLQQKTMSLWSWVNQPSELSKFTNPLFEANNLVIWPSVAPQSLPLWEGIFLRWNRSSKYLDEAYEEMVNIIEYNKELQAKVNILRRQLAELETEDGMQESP
UniProt Q96RR4, whole entry, looked up: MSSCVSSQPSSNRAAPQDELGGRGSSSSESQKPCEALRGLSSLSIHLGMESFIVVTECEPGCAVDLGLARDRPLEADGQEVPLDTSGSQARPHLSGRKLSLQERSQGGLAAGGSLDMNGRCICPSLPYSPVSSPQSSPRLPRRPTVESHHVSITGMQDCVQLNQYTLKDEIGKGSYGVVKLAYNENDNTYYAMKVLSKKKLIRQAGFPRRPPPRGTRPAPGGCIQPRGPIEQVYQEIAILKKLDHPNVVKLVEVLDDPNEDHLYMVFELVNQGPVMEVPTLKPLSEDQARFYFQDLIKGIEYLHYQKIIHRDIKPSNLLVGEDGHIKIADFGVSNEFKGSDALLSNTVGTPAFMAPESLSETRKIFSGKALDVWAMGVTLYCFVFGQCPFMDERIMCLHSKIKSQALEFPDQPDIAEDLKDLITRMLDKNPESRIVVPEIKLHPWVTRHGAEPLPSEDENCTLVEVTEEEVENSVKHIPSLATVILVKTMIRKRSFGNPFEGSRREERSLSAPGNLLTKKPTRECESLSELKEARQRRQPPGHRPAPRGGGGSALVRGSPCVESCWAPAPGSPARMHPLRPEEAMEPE
UniProt Q99615: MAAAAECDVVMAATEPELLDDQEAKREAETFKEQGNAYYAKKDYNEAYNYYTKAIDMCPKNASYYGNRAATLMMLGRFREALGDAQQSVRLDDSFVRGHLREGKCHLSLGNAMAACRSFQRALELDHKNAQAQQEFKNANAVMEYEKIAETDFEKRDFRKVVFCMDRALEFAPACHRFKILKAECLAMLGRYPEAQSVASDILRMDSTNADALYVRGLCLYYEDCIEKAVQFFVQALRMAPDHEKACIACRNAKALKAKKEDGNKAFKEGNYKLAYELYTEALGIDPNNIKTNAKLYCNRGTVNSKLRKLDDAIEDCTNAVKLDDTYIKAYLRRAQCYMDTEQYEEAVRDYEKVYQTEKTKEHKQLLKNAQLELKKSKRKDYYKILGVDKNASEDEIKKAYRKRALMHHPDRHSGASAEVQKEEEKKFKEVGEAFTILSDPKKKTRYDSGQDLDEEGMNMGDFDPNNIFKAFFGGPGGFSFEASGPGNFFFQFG
UniProt Q96SK2: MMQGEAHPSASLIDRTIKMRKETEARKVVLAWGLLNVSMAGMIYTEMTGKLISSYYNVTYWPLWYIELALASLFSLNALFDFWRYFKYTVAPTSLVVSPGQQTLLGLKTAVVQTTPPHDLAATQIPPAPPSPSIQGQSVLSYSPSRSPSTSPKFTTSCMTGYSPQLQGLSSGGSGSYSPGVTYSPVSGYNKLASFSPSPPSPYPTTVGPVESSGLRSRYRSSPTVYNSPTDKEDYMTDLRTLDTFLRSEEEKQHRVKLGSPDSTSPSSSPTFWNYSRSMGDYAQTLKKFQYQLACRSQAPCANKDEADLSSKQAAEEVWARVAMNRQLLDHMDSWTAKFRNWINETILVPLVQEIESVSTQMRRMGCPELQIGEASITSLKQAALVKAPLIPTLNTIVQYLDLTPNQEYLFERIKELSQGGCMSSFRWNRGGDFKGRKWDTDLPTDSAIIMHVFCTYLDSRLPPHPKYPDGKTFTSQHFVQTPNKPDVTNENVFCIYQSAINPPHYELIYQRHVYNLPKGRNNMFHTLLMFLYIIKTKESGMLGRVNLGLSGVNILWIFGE
UniProt Q9BTV5: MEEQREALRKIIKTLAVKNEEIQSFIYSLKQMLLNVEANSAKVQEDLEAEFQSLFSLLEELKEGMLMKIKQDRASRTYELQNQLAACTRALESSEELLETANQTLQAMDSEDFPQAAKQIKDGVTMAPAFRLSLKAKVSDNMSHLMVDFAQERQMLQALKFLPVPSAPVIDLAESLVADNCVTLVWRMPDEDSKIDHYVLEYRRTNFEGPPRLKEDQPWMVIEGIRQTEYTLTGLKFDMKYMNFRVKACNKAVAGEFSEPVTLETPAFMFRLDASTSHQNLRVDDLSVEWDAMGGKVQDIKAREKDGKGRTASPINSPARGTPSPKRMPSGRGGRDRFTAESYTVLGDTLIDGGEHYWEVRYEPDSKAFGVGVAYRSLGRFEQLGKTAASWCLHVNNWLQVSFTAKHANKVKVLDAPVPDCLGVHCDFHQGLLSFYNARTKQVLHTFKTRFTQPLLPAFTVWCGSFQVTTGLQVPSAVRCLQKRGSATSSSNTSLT
UniProt Q99816: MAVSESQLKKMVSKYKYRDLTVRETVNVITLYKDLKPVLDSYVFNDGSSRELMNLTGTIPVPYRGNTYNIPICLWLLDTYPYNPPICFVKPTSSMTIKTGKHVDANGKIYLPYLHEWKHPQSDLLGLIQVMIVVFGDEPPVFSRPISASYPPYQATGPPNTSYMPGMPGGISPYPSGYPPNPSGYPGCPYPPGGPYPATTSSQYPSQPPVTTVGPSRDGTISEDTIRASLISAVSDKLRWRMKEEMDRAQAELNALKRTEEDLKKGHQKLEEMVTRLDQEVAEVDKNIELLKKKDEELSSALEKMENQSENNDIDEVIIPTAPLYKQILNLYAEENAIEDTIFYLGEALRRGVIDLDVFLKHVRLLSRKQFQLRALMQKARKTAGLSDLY
UniProt Q9BXL7: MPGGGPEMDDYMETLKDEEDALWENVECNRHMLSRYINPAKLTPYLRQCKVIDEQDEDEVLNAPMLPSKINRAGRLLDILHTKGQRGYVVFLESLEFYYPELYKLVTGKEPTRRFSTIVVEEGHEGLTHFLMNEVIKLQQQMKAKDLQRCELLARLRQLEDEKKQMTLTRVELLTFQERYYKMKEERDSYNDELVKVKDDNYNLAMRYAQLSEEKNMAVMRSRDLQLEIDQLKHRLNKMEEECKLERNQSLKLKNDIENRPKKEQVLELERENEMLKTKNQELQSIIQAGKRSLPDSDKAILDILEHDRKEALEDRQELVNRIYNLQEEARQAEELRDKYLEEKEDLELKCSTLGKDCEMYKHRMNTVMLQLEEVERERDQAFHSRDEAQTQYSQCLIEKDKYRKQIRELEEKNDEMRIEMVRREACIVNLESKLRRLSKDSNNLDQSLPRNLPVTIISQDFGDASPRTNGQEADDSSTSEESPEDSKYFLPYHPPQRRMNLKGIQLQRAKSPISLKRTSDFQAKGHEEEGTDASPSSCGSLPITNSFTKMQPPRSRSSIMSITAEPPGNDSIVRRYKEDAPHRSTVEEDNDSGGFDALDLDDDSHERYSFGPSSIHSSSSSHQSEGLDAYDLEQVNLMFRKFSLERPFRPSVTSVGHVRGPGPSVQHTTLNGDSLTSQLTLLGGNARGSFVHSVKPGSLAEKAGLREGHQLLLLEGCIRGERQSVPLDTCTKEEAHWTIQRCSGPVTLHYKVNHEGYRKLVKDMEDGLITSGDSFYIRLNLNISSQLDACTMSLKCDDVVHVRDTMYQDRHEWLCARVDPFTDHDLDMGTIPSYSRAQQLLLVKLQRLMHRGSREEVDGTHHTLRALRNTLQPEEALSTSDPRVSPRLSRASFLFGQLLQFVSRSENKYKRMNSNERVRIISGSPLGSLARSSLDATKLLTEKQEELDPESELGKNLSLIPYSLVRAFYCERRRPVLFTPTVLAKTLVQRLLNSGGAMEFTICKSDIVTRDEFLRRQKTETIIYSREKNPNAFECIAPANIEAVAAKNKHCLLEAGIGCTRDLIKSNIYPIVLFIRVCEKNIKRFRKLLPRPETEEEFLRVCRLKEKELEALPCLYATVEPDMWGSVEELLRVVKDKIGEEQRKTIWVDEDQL
UniProt Q9BTT4: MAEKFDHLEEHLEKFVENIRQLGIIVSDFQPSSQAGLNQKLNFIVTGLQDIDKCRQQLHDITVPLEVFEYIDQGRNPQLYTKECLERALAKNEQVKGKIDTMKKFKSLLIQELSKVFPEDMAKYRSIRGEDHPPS
UniProt Q96Q45: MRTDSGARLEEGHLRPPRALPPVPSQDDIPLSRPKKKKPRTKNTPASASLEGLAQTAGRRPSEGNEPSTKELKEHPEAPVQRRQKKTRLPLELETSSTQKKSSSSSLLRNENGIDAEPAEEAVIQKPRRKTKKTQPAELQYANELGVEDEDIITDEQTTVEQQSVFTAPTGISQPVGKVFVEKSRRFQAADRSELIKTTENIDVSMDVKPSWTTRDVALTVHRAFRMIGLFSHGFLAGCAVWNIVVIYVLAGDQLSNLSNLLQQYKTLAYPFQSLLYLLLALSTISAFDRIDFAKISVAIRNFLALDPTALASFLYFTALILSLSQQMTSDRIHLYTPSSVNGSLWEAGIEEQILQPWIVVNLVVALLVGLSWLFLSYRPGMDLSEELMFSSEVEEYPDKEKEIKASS
UniProt Q99856: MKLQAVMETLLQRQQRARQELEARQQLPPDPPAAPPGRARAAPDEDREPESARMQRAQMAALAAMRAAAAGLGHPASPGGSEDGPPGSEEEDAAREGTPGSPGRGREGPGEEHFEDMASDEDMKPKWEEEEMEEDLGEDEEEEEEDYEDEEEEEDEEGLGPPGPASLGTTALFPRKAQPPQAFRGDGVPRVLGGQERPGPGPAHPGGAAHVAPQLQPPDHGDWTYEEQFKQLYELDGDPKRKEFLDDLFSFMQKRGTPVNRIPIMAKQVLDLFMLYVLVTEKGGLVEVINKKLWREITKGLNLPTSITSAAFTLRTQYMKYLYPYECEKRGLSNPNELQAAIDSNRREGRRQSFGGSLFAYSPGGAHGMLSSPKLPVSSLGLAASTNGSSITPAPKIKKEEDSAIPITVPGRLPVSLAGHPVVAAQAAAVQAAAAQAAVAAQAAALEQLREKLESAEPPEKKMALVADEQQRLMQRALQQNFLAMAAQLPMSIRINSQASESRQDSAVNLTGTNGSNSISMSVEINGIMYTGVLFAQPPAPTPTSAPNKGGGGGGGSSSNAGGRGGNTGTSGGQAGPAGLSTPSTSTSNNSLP
UniProt Q9BYT8, whole entry, looked up: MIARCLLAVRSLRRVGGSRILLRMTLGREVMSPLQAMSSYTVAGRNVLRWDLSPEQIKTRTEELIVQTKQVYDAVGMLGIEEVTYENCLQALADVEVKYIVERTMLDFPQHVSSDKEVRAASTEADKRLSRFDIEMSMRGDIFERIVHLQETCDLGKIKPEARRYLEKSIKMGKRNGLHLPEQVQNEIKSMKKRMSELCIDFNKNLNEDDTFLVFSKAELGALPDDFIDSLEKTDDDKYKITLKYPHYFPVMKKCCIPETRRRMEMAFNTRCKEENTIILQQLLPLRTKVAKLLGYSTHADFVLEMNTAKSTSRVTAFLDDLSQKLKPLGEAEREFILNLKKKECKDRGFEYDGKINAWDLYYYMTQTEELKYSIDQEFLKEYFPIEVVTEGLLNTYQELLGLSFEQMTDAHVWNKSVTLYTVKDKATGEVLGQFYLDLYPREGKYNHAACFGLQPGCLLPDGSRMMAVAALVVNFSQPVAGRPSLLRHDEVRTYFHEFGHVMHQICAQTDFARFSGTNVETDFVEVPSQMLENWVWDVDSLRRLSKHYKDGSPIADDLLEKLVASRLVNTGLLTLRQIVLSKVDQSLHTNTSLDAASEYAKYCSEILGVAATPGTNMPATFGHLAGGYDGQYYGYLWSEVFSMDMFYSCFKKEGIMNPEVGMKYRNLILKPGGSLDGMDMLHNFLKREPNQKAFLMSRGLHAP
UniProt Q9BQE9, whole entry: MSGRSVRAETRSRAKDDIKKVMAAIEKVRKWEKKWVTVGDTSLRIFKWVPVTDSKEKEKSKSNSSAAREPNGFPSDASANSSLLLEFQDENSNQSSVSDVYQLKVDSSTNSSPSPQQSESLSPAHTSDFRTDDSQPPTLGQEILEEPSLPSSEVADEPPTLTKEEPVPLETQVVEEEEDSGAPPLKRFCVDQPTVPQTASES
UniProt Q99470: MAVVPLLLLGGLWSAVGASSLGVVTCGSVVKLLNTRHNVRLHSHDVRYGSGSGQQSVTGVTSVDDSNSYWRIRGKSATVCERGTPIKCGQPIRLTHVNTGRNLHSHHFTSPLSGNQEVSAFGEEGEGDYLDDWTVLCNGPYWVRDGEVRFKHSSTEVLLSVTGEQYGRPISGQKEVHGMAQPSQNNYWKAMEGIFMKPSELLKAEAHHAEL

Row | Target | NP40-soluble protein abundance (concentration: 0.1mM) | NP40-soluble protein abundance (concentration: 0.5mM) | NP40-soluble protein abundance (concentration: 1mM) | NP40-soluble protein abundance (concentration: 2mM) | NP40-soluble protein abundance (concentration: 4mM) | NP40-soluble protein abundance (concentration: 6mM) | NP40-soluble protein abundance (concentration: 8mM) | NP40-soluble protein abundance (concentration: 10mM)
1 | MTMR9 (UniProt Q96QG7) | 1.08 ± 0.074 | 1.01 ± 0.046 | 0.939 ± 0.055 | 0.976 ± 0.077 | 0.984 ± 0.039 | 0.935 ± 0.042 | 0.94 ± 0.012 | 0.9 ± 0.031
2 | UniProt Q96Q89 and related entries | 1.04 ± 0.027 | 1.05 ± 0.05 | 1.05 ± 0.054 | 1.03 ± 0.043 | 0.979 ± 0.031 | 0.997 ± 0.017 | 1.05 ± 0.044 | 0.978 ± 0.03
3 | IPO9 (UniProt Q96P70) | 1.02 ± 0.02 | 0.984 ± 0.014 | 0.95 ± 0.022 | 0.9734 ± 0.006 | 0.9551 ± 0.0068 | 0.956 ± 0.022 | 0.951 ± 0.032 | 0.926 ± 0.028
4 | UniProt Q96RR4 and related entries | 1.07 ± 0.067 | 1.03 ± 0.031 | 1.09 ± 0.09 | 1.02 ± 0.054 | 1.02 ± 0.072 | 1.02 ± 0.12 | 0.981 ± 0.035 | 1.02 ± 0.062
5 | DCTN5 (UniProt Q9BTE1) | 1.07 ± 0.073 | 1.05 ± 0.12 | 0.999 ± 0.11 | 1.04 ± 0.16 | 1.04 ± 0.17 | 1.06 ± 0.17 | 1.03 ± 0.15 | 1 ± 0.16
6 | UniProt Q9BV86 | 1 ± 0.049 | 1.02 ± 0.014 | 0.934 ± 0.025 | 0.93 ± 0.071 | 0.941 ± 0.053 | 0.888 ± 0.043 | 0.876 ± 0.12 | 0.881 ± 0.1
7 | WDR92 (UniProt Q96MX6) | 1.03 ± 0.071 | 1.06 ± 0.12 | 0.998 ± 0.11 | 1.07 ± 0.14 | 1.04 ± 0.15 | 1.06 ± 0.19 | 1.02 ± 0.12 | 1.01 ± 0.13
8 | NUP85 (UniProt Q9BW27) | 1.13 ± 0.072 | 1.12 ± 0.094 | 0.989 ± 0.043 | 1.02 ± 0.099 | 1.03 ± 0.11 | 1 ± 0.19 | 0.975 ± 0.033 | 1.02 ± 0.13
9 | TARS2 (UniProt Q9BW92) | 1.02 ± 0.077 | 1.06 ± 0.1 | 1 ± 0.03 | 1.02 ± 0.087 | 0.988 ± 0.067 | 0.953 ± 0.055 | 0.921 ± 0.041 | 0.924 ± 0.087
10 | UniProt Q96PM5 and related entries | 1.1 ± 0.12 | 1.07 ± 0.13 | 1 ± 0.11 | 1.06 ± 0.16 | 0.994 ± 0.18 | 1.02 ± 0.14 | 1.02 ± 0.16 | 0.975 ± 0.11
11 | TRMT61B (UniProt Q9BVS5) | 1.13 ± 0.06 | 1.07 ± 0.096 | 1.04 ± 0.14 | 1.06 ± 0.057 | 1.09 ± 0.096 | 1.08 ± 0.087 | 1.03 ± 0.069 | 1.01 ± 0.025
12 | DNAJC7 (UniProt Q99615) | 0.981 ± 0.038 | 0.968 ± 0.051 | 0.975 ± 0.048 | 0.948 ± 0.056 | 0.93 ± 0.058 | 0.959 ± 0.064 | 0.977 ± 0.054 | 0.947 ± 0.056
13 | UniProt Q9BSH4 | 0.988 ± 0.038 | 0.991 ± 0.047 | 0.915 ± 0.023 | 0.916 ± 0.0096 | 0.877 ± 0.021 | 0.881 ± 0.022 | 0.864 ± 0.031 | 0.843 ± 0.077
14 | UniProt Q96SK2 and related entries | 0.947 ± 0.017 | 1.01 ± 0.024 | 1.04 ± 0.055 | 0.931 ± 0.017 | 0.971 ± 0.042 | 1.13 ± 0.039 | 1.29 ± 0.015 | 1.301 ± 0.01
15 | FSD1 (UniProt Q9BTV5) | 1.02 ± 0.071 | 1.09 ± 0.086 | 1.02 ± 0.062 | 0.998 ± 0.12 | 1.02 ± 0.12 | 1.02 ± 0.13 | 0.949 ± 0.072 | 0.969 ± 0.11
16 | UniProt Q96RT1 and related entries | 0.966 ± 0.016 | 0.978 ± 0.031 | 0.99 ± 0.03 | 0.97 ± 0.054 | 0.972 ± 0.027 | 1 ± 0.031 | 1.01 ± 0.046 | 1.03 ± 0.072
17 | TSG101 (UniProt Q99816) | 0.915 ± 0.046 | 0.894 ± 0.059 | 0.952 ± 0.065 | 0.925 ± 0.083 | 0.94 ± 0.079 | 0.932 ± 0.075 | 0.884 ± 0.1 | 0.921 ± 0.066
18 | ITPA (UniProt Q9BY32) | 0.959 ± 0.035 | 0.949 ± 0.026 | 0.933 ± 0.052 | 0.867 ± 0.11 | 0.845 ± 0.12 | 0.897 ± 0.1 | 0.88 ± 0.065 | 0.85 ± 0.094
19 | CARD11 (UniProt Q9BXL7) | 0.892 ± 0.1 | 0.973 ± 0.097 | 0.912 ± 0.095 | 0.955 ± 0.089 | 0.878 ± 0.059 | 0.906 ± 0.055 | 0.849 ± 0.12 | 0.92 ± 0.035
20 | MED10 (UniProt Q9BTT4) | 1.01 ± 0.2 | 1.03 ± 0.098 | 0.973 ± 0.028 | 1.07 ± 0.11 | 0.95 ± 0.094 | 1.08 ± 0.05 | 0.968 ± 0.092 | 1.07 ± 0.038
21 | UniProt Q99426 and related entries | 0.89 ± 0.061 | 0.918 ± 0.06 | 0.846 ± 0.062 | 0.851 ± 0.063 | 0.806 ± 0.067 | 0.822 ± 0.062 | 0.773 ± 0.078 | 0.824 ± 0.095
22 | UniProt Q96MW5 and related entries | 1.01 ± 0.067 | 1.08 ± 0.083 | 1.02 ± 0.047 | 1.08 ± 0.037 | 1.09 ± 0.028 | 1.07 ± 0.08 | 1.07 ± 0.074 | 1.03 ± 0.099
23 | UniProt Q96Q45 and related entries | 0.881 ± 0.076 | 0.841 ± 0.16 | 0.903 ± 0.16 | 0.877 ± 0.091 | 0.869 ± 0.045 | 0.857 ± 0.19 | 0.965 ± 0.12 | 1.01 ± 0.042
24 | EXOC2 (UniProt Q96KP1) | 1.01 ± 0.0031 | 1.04 ± 0.066 | 0.979 ± 0.023 | 1 ± 0.064 | 1.03 ± 0.058 | 0.98 ± 0.083 | 1.02 ± 0.067 | 1 ± 0.045
25 | ARID3A (UniProt Q99856) | 0.959 ± 0.084 | 0.94 ± 0.09 | 1.02 ± 0.12 | 0.966 ± 0.15 | 0.935 ± 0.098 | 0.942 ± 0.1 | 0.986 ± 0.076 | 0.991 ± 0.091
26 | NLN (UniProt Q9BYT8) | 1.07 ± 0.088 | 1.05 ± 0.097 | 0.949 ± 0.04 | 0.971 ± 0.087 | 0.962 ± 0.074 | 0.933 ± 0.051 | 0.887 ± 0.036 | 0.858 ± 0.073
27 | BCL7B (UniProt Q9BQE9) | 1.12 ± 0.14 | 1.13 ± 0.014 | 1.09 ± 0.14 | 1.17 ± 0.043 | 1.28 ± 0.23 | 1.13 ± 0.1 | 1.12 ± 0.075 | 1.17 ± 0.084
28 | UniProt Q99623 and related entries | 1.02 ± 0.036 | 1.06 ± 0.079 | 0.977 ± 0.046 | 1.01 ± 0.12 | 1 ± 0.092 | 1.01 ± 0.12 | 0.955 ± 0.059 | 0.946 ± 0.08
29 | SMG1 (UniProt Q96Q15) | 1.018 ± 0.0095 | 1.05 ± 0.063 | 1.02 ± 0.062 | 1.06 ± 0.021 | 1.08 ± 0.028 | 1.06 ± 0.047 | 1.09 ± 0.076 | 1.03 ± 0.065
30 | UniProt Q99470 and related entries | 1.11 ± 0.11 | 1.1 ± 0.11 | 1.08 ± 0.13 | 1.06 ± 0.086 | 1.04 ± 0.12 | 1.02 ± 0.079 | 1.07 ± 0.072 | 1.06 ± 0.063

2 entries picked at random from those above, as already listed:
Row | Target | NP40-soluble protein abundance (concentration: 0.1mM) | NP40-soluble protein abundance (concentration: 0.5mM) | NP40-soluble protein abundance (concentration: 1mM) | NP40-soluble protein abundance (concentration: 2mM) | NP40-soluble protein abundance (concentration: 4mM) | NP40-soluble protein abundance (concentration: 6mM) | NP40-soluble protein abundance (concentration: 8mM) | NP40-soluble protein abundance (concentration: 10mM)
20 | MED10 (UniProt Q9BTT4) | 1.01 ± 0.2 | 1.03 ± 0.098 | 0.973 ± 0.028 | 1.07 ± 0.11 | 0.95 ± 0.094 | 1.08 ± 0.05 | 0.968 ± 0.092 | 1.07 ± 0.038
23 | UniProt Q96Q45 and related entries | 0.881 ± 0.076 | 0.841 ± 0.16 | 0.903 ± 0.16 | 0.877 ± 0.091 | 0.869 ± 0.045 | 0.857 ± 0.19 | 0.965 ± 0.12 | 1.01 ± 0.042

— the supplement of paper PMC6411743
